Results deposited as PubChem BioAssay AID1259254 (NCATS, 2017).
Shown is an unselected part of about 59,000 deposited reagents. In the full data, about 1,550 (2.6%) were called active. 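G2 share is only a proxy for re-replication; each gene was hit by three separate siRNAs, and active genes were retested.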 Unmarked entries are inactive. Reagents against one gene are numbered here. Not all columns of the deposit are shown. Not given: the amount of reagent.

Assay: 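Genome-wide screen for genes that prevent DNA re-replication in cancer cells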 (primary screen)
System: human HCT116 colorectal cancer cells
Reagents: single siRNA against human genes
Duration: 3 days
Measured: 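Imaged Hoechst DNA stain sorts each cell into a cycle phase by DNA amount; per plate, G2 fraction set to 0% for non-targeting and 100% for GMNN siRNA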
Scale: G2 robust z-score and G2 cells, % of GMNN control: higher = more G2 cells, more excess DNA replication
Active means: 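Active siRNAs have a G2 robust z of 5 or more median absolute deviations over the median, which in these data means about 38% or higher of GMNN control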

With OAF (GeneID 220323) #1, how do the results read?
G2 robust z-score: -0.386; G2 cells, % of GMNN control: 0.25

With OAF (GeneID 220323) #2, what does the deposit list?
G2 robust z-score: 0.979; G2 cells, % of GMNN control: 9.85

How did the screen score OAF (GeneID 220323) #3?
G2 robust z-score: -0.828; G2 cells, % of GMNN control: -2.86

For FAM170B (GeneID 170370) #1, what was measured?
G2 robust z-score: 0.972; G2 cells, % of GMNN control: 9.81

For FAM170B (GeneID 170370) #2, how do the results read?
G2 robust z-score: -0.602; G2 cells, % of GMNN control: -1.27

Which result is listed for FAM170B (GeneID 170370) #3?
G2 robust z-score: 1.32; G2 cells, % of GMNN control: 12.3

How did the screen score ZNF41 (GeneID 7592) #1?
G2 robust z-score: -0.211; G2 cells, % of GMNN control: 1.48

With ZNF41 (GeneID 7592) #2, what was measured?
G2 robust z-score: 0.142; G2 cells, % of GMNN control: 3.97

What did the screen give for ZNF41 (GeneID 7592) #3?
G2 robust z-score: -0.471; G2 cells, % of GMNN control: -0.343

For TMPRSS11E (GeneID 28983) #1, what does the deposit list?
G2 robust z-score: 3.25; G2 cells, % of GMNN control: 25.9

What did the screen give for TMPRSS11E (GeneID 28983) #2?
G2 robust z-score: -0.867; G2 cells, % of GMNN control: -3.13

With TMPRSS11E (GeneID 28983) #3, what was measured?
G2 robust z-score: -0.605; G2 cells, % of GMNN control: -1.29

For TUSC1 (GeneID 286319) #1, what was measured?
G2 robust z-score: 0.669; G2 cells, % of GMNN control: 7.67

What did the screen give for TUSC1 (GeneID 286319) #2?
G2 robust z-score: 1.33; G2 cells, % of GMNN control: 12.3

What is on record for TUSC1 (GeneID 286319) #3?
G2 robust z-score: -0.761; G2 cells, % of GMNN control: -2.38

How did the screen score YRDC (GeneID 79693) #1?
G2 robust z-score: -0.185; G2 cells, % of GMNN control: 1.66

How did the screen score YRDC (GeneID 79693) #2?
G2 robust z-score: 0.856; G2 cells, % of GMNN control: 8.99

What did the screen give for YRDC (GeneID 79693) #3?
G2 robust z-score: -0.939; G2 cells, % of GMNN control: -3.64

How did the screen score USF1 (GeneID 7391) #1?
G2 robust z-score: -0.758; G2 cells, % of GMNN control: -2.37

For USF1 (GeneID 7391) #2, what was measured?
G2 robust z-score: -0.885; G2 cells, % of GMNN control: -3.26

With USF1 (GeneID 7391) #3, what does the deposit list?
G2 robust z-score: -0.889; G2 cells, % of GMNN control: -3.29

What did the screen give for TKTL1 (GeneID 8277) #1?
G2 robust z-score: 3.82; G2 cells, % of GMNN control: 29.9

Which result is listed for TKTL1 (GeneID 8277) #2?
G2 robust z-score: 0.667; G2 cells, % of GMNN control: 7.66

What is on record for TKTL1 (GeneID 8277) #3?
G2 robust z-score: 1.17; G2 cells, % of GMNN control: 11.2

Which result is listed for H3C8 (GeneID 8355) #1?
G2 robust z-score: 0.67; G2 cells, % of GMNN control: 7.68

Which result is listed for H3C8 (GeneID 8355) #2?
G2 robust z-score: -0.566; G2 cells, % of GMNN control: -1.01

For H3C8 (GeneID 8355) #3, how do the results read?
G2 robust z-score: -0.287; G2 cells, % of GMNN control: 0.949

What did the screen give for C20orf141 (GeneID 128653) #1?
G2 robust z-score: 0.617; G2 cells, % of GMNN control: 7.31

What is on record for C20orf141 (GeneID 128653) #2?
G2 robust z-score: 2.7; G2 cells, % of GMNN control: 21.9

With C20orf141 (GeneID 128653) #3, how do the results read?
G2 robust z-score: 1.54; G2 cells, % of GMNN control: 13.8

An excerpt from above, limited to “G2 robust z-score”.
ZNF41 (GeneID 7592) #2: 0.142
ZNF41 (GeneID 7592) #3: -0.471
TMPRSS11E (GeneID 28983) #1: 3.25
TMPRSS11E (GeneID 28983) #2: -0.867
TMPRSS11E (GeneID 28983) #3: -0.605
